The values below come from publication PMC5951847.

By UniProt entry, the sequences of proteins in these tests, tags left out.
UniProt P31941, whole entry E72A: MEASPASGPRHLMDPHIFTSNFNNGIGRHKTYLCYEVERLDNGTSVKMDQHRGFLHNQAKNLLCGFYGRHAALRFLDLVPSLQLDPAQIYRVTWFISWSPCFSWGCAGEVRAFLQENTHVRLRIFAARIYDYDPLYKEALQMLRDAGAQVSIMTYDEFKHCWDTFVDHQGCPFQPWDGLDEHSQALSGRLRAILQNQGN

Construct, isoform or probe ends are uncertain for at least one entry. No signal at the amounts used counts as a negative.

The series has as its target A3A(E72A) (Homo sapiens) (UniProt P31941). The series can be described thus: fluorescence anisotropy. To be noted: pH above 8.0 (8.5, 9.0); 50 mM MES pH 6.0, 100 mM NaCl, 0.5 mM TCEP, room temperature overnight, 10 nM TAMRA-oligo; competition with 300 nM A3A(E72A); pH series: acetate 4.0-5.0, MES 5.5-6.5; recombinant protein; protein details: His6-SUMO removed by Ulp1 (untagged); label: 5' TAMRA; single-stranded DNA; letters put together from the description. Background: Fluorescence polarisation rises when a labelled molecule tumbles more slowly, as on binding a larger partner.

As for “AAAATTCAAAAAA [Poly A-TTC (pH series, 4A-TTC-6A)]”, the binding result was “no binding”.
